The assay concerns the target T1, KIF1C-BioID-3XFLAG (human) (UniProt O43896).
T1 sequence: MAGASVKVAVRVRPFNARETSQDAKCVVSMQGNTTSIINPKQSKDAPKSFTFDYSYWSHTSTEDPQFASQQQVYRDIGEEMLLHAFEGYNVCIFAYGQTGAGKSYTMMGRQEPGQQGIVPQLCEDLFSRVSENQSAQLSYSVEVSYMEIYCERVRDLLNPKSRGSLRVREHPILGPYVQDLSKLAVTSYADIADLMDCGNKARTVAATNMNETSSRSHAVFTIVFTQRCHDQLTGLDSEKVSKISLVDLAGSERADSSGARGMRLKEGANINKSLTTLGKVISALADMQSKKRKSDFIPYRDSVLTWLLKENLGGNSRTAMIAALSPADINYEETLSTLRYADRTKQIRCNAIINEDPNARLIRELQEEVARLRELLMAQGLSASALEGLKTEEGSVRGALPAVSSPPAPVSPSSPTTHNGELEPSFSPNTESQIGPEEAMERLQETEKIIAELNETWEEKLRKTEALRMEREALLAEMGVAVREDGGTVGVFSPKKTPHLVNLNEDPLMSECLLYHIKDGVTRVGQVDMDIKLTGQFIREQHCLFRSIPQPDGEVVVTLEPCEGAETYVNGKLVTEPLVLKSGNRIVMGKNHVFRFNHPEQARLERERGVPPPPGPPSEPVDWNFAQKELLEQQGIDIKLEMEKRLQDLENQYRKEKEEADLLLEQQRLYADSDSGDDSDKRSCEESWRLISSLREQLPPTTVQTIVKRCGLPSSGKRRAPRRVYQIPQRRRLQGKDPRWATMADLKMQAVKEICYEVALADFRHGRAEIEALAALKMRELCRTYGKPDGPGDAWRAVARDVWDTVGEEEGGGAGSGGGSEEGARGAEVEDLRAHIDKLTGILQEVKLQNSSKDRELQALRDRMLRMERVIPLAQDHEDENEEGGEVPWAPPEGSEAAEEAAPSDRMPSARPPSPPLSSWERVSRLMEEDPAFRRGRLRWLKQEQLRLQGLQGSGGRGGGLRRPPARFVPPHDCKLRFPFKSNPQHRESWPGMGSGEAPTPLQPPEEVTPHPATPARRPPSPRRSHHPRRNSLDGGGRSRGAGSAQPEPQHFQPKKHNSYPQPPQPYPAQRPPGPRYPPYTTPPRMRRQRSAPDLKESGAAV
As to the kind of experiment: proximity labelling.

By UniProt entry, the sequences of proteins in these tests, tags left out.
UniProt P63172: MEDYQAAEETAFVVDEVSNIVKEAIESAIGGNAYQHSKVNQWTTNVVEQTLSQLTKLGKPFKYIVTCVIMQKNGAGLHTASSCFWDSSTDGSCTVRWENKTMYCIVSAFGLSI

No constants are given. Whether binding was seen depends on the method and setting. Binding seen in cells or lysates may run through a third protein. These calls come from enrichment with a bait or labelling near it, and not all partners need be listed. Where a sequence is shown, tags or fusion partners need not be part of it.

As for “dynein light chain Tctex-Type 1 (DYNLT1) (from UniProt P63172 1-113)”, the binding entry is on record as “binds”.

Source of the values: publication doi:10.1101/508887.
